Measured values reported in paper doi:10.1101/2025.08.12.669905.
No constants are given. Whether binding was seen depends on the method and setting. Binding seen in cells or lysates may run through a third protein. These calls come from enrichment with a bait or labelling near it, and not all partners need be listed. Values belong to the binder of their own block, whether it stands above or below them.

Molecular target: T1, Mediator subunit MED16 (endogenous) (human (endogenous in 293T and HeLa)) (UniProt Q9Y2X0)
T1 sequence: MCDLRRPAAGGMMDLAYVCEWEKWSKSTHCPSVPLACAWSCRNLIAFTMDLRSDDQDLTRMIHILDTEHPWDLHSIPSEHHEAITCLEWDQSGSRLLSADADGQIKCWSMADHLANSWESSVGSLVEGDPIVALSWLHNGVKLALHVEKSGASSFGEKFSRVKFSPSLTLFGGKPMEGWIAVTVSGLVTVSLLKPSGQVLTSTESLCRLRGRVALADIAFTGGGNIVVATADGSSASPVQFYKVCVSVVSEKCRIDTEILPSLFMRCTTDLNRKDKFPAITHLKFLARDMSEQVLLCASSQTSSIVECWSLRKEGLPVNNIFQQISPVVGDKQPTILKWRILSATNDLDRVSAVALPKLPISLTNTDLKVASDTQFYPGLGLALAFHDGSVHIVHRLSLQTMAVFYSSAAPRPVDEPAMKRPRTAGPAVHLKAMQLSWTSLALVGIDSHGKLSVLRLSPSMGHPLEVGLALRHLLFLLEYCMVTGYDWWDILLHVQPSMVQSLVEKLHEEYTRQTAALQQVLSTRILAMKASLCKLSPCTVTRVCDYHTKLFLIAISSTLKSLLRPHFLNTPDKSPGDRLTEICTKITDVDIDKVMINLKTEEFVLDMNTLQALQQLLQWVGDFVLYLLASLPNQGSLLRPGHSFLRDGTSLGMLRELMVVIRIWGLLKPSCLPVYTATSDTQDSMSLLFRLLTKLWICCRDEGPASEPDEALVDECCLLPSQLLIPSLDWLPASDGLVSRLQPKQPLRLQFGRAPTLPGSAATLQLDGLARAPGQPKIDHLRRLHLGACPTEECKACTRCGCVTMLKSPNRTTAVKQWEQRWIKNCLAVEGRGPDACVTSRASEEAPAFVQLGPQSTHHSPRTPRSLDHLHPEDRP
Assay: affinity purification with mass spectrometry

- binding: binds
B1: TFCP2 (endogenous) (protein, UniProt Q12800 1-502)
chain: MAWALKLPLADEVIESGLVQDFDASLSGIGQELGAGAYSMSDVLALPIFKQEESSLPPDNENKILPFQYVLCAATSPAVKLHDETLTYLNQGQSYEIRMLDNRKLGELPEINGKLVKSIFRVVFHDRRLQYTEHQQLEGWRWNRPGDRILDIDIPMSVGIIDPRANPTQLNTVEFLWDPAKRTSVFIQVHCISTEFTMRKHGGEKGVPFRVQIDTFKENENGEYTEHLHSASCQIKVFKPKGADRKQKTDREKMEKRTPHEKEKYQPSYETTILTECSPWPEITYVNNSPSPGFNSSHSSFSLGEGNGSPNHQPEPPPPVTDNLLPTTTPQEAQQWLHRNRFSTFTRLFTNFSGADLLKLTRDDVIQICGPADGIRLFNALKGRMVRPRLTIYVCQESLQLREQQQQQQQQQQKHEDGDSNGTFFVYHAIYLEELTAVELTEKIAQLFSISPCQISQIYKQGPTGIHVLISDEMIQNFQEEACFILDTMKAETNDSYHIILK

- binding: binds
B2: UBP1 (endogenous) (protein, UniProt Q9NZI7 1-540)
chain: MAWVLKMDEVIESGLVHDFDASLSGIGQELGAGAYSMSDVLALPIFKQEDSSLPLDGETEHPPFQYVMCAATSPAVKLHDETLTYLNQGQSYEIRMLDNRKMGDMPEINGKLVKSIIRVVFHDRRLQYTEHQQLEGWKWNRPGDRLLDLDIPMSVGIIDTRTNPSQLNAVEFLWDPAKRTSAFIQVHCISTEFTPRKHGGEKGVPFRIQVDTFKQNENGEYTDHLHSASCQIKVFKPKGADRKQKTDREKMEKRTAHEKEKYQPSYDTTILTEMRLEPIIEDAVEHEQKKSSKRTLPADYGDSLAKRGSCSPWPDAPTAYVNNSPSPAPTFTSPQQSTCSVPDSNSSSPNHQGDGASQTSGEQIQPSATIQETQQWLLKNRFSSYTRLFSNFSGADLLKLTKEDLVQICGAADGIRLYNSLKSRSVRPRLTIYVCREQPSSTVLQGQQQAASSASENGSGAPYVYHAIYLEEMIASEVARKLALVFNIPLHQINQVYRQGPTGIHILVSDQMVQNFQDESCFLFSTVKAESSDGIHIILK
